# ± gives the standard deviation of the averaged measurements. Only a part is listed here, and it is no random draw.
# Chains of the proteins cited; added tags and fusions are not shown. Lines headed by an entry give the natural chain unless they say otherwise; changes in a name come on top.
# UniProt Q04941: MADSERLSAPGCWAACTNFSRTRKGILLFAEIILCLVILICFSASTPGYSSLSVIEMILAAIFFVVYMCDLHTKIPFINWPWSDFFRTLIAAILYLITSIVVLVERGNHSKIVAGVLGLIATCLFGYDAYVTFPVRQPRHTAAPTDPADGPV
# UniProt Q13362, whole entry, looked up: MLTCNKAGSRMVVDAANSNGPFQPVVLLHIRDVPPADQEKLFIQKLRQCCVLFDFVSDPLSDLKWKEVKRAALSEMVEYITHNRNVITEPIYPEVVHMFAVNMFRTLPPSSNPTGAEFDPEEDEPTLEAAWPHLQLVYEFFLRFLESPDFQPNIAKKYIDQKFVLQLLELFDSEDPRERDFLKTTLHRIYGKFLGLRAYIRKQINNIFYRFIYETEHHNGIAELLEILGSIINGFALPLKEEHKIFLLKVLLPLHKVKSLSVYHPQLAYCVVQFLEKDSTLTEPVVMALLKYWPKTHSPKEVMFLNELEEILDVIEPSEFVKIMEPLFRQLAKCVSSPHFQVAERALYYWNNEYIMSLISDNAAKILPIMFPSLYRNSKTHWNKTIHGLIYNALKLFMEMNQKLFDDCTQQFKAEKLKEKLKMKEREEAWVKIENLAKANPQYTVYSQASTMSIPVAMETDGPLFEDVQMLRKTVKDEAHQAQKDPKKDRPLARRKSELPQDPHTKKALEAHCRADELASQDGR
# UniProt Q06330: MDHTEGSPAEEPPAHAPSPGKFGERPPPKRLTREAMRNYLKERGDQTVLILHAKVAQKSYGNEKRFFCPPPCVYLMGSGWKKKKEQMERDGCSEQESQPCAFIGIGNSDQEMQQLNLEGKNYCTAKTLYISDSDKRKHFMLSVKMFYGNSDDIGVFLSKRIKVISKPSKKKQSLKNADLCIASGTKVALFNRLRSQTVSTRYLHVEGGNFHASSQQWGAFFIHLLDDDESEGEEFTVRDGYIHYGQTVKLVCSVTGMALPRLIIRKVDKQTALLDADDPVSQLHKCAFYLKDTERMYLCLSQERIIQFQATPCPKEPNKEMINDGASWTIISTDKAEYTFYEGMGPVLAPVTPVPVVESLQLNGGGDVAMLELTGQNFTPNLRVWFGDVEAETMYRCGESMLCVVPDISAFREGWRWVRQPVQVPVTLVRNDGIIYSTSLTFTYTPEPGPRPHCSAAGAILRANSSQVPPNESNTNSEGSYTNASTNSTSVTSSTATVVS
# UniProt Q12789: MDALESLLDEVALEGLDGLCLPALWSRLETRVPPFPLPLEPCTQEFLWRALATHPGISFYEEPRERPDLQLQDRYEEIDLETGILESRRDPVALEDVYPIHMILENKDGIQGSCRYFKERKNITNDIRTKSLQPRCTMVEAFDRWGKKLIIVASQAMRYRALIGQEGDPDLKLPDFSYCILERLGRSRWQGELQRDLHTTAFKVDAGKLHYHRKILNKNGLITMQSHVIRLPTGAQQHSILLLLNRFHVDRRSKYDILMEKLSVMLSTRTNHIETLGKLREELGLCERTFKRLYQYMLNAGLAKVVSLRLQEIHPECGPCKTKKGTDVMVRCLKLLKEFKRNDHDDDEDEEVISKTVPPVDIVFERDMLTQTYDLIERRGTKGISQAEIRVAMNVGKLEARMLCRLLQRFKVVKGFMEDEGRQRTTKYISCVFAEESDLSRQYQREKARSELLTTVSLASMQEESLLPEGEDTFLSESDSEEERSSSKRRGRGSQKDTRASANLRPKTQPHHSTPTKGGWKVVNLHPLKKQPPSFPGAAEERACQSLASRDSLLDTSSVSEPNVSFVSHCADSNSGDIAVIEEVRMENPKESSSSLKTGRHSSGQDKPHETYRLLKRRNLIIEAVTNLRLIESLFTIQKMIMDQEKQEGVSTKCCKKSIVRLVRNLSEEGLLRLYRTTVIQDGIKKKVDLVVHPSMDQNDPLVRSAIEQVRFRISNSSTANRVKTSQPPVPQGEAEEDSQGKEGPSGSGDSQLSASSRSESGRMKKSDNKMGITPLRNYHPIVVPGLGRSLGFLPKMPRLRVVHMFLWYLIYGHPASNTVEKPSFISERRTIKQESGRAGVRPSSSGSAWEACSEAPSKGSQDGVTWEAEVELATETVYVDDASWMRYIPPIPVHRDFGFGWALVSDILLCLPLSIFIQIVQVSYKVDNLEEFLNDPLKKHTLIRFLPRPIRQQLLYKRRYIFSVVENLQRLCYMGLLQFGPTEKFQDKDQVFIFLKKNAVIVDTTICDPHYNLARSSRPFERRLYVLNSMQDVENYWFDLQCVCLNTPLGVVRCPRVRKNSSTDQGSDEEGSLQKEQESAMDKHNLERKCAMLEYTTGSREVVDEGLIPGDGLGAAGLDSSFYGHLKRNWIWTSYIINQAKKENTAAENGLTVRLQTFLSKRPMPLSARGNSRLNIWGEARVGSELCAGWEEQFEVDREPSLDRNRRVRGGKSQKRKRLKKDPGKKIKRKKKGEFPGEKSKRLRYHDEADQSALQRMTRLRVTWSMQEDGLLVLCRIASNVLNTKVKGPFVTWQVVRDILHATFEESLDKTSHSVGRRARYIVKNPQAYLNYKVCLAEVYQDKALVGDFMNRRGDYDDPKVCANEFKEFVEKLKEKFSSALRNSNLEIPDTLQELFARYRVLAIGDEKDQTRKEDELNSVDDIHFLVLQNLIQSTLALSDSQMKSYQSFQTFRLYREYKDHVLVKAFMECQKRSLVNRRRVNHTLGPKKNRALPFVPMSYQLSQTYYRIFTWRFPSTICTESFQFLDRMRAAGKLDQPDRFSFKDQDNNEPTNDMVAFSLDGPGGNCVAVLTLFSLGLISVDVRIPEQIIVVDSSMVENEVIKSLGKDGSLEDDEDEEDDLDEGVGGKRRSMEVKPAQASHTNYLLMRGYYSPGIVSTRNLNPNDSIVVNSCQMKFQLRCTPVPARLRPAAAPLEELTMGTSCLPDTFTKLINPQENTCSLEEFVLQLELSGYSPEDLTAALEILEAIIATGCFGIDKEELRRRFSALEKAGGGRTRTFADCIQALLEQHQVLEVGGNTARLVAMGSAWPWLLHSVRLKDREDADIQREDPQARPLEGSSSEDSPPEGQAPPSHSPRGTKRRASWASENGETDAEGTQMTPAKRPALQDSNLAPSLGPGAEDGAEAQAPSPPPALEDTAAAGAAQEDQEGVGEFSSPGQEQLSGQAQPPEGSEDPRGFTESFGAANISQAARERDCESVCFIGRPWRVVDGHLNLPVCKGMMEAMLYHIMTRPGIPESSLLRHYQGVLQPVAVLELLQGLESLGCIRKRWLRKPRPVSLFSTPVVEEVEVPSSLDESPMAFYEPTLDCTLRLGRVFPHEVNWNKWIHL
# UniProt Q13443: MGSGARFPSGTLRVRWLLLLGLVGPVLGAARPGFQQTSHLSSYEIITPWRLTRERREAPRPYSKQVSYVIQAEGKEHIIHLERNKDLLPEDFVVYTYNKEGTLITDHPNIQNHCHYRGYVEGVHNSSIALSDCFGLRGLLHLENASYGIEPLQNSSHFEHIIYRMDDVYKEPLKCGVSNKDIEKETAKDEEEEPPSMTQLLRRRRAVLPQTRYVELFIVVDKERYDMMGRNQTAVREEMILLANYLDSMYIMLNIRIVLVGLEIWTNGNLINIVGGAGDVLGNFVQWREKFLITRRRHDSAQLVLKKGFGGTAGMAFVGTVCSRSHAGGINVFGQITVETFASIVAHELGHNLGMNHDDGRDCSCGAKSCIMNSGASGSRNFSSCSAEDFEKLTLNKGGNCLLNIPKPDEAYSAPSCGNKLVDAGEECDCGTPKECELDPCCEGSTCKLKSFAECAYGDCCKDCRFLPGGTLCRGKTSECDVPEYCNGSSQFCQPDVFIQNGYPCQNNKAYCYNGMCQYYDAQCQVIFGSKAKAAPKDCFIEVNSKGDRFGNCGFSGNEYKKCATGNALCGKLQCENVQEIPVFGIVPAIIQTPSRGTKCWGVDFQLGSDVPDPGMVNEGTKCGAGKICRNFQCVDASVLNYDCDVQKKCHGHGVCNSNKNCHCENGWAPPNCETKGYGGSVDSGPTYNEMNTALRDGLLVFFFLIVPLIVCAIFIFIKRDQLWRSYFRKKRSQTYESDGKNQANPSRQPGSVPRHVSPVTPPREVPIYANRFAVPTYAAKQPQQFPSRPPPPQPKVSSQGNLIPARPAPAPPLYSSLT
# UniProt Q13643: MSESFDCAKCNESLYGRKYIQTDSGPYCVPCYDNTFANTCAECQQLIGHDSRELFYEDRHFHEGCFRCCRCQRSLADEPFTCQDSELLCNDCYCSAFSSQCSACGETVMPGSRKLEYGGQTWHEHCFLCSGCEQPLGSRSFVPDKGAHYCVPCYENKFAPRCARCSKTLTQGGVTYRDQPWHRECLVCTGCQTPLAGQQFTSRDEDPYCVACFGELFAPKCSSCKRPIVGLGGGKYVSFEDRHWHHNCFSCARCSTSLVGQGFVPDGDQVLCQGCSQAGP
# UniProt Q13242, whole entry: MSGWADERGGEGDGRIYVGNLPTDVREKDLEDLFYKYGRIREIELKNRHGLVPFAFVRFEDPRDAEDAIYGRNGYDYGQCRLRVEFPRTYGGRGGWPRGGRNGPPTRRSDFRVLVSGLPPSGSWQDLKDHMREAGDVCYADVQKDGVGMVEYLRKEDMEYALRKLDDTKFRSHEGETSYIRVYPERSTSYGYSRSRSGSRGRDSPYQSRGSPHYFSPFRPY
# UniProt Q09028, whole entry: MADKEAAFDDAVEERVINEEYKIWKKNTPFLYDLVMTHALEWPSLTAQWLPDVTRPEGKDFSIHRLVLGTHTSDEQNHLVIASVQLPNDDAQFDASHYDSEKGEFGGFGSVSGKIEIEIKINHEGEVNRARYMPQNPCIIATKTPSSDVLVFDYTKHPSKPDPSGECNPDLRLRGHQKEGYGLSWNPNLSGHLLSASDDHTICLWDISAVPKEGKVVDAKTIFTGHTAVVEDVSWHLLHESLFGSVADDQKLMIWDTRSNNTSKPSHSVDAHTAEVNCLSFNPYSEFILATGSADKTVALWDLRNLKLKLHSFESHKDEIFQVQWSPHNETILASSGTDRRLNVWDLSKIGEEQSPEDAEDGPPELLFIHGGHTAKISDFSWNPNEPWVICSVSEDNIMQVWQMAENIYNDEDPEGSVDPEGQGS
# UniProt Q07666, whole entry: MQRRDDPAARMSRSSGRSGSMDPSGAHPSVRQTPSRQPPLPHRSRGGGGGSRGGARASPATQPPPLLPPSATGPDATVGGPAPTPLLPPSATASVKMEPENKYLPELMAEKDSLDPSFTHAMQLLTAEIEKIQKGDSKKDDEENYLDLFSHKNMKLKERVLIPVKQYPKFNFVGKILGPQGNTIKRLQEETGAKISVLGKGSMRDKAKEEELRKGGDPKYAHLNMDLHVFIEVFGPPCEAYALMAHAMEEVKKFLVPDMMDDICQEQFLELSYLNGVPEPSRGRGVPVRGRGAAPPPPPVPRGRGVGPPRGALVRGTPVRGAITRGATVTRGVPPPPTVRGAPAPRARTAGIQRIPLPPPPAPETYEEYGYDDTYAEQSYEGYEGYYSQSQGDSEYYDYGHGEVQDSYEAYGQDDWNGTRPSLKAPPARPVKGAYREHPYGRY
# UniProt Q13127: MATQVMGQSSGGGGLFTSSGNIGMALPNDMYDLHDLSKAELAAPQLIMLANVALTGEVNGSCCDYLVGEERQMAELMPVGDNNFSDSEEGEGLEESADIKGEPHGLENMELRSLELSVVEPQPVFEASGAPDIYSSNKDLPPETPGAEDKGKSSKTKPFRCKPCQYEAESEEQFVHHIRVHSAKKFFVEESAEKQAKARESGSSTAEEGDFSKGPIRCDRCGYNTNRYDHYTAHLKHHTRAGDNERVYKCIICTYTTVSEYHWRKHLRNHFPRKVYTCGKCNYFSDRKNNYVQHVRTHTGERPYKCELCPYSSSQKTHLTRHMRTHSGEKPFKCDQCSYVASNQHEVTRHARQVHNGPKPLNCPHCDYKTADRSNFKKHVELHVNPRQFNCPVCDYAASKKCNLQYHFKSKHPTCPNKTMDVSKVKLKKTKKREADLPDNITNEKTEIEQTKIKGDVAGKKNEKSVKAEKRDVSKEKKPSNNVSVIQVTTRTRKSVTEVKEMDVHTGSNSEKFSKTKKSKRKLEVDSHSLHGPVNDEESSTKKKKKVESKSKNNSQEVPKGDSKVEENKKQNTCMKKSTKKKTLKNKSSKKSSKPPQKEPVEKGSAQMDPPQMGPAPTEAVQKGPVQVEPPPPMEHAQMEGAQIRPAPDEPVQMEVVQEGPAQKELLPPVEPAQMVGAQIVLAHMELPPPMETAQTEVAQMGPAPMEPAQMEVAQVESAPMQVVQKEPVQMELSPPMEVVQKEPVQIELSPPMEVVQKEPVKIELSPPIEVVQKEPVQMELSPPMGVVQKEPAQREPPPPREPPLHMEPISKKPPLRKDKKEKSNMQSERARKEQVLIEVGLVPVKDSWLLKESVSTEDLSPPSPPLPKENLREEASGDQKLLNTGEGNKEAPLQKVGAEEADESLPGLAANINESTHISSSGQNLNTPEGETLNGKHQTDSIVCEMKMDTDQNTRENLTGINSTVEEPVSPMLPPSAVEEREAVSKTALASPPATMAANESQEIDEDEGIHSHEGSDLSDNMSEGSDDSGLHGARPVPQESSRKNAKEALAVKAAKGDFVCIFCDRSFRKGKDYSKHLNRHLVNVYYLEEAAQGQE
# Compound: Nc1ncnc2c1ncn2[C@@H]1O[C@H](COP(=O)(O)OP(=O)(O)OP(=O)(O)O)[C@@H](O)[C@H]1O [adenosine triphosphate]
# Test: NP40-soluble protein abundance relative to vehicle (solubility fold change) (ratio); higher = more soluble protein in presence of ATP
# Outline: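 Across three independent experiments, values are fold changes against the detergent-processed vehicle for each replicate, based on vsn-normalised intensities. The samples were Jurkat crude lysate treated with eight concentrations (0.1 to 10 mM) for 10 min at room temperature and then 3 min at 37 °C. Lysate was solubilised with 0.8% NP40 and benzonase, ultracentrifuged, and the supernatant analysed by TMT-labelled LC-MS/MS.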
Target,NP40-soluble protein abundance (concentration: 1mM),NP40-soluble protein abundance (concentration: 2mM),NP40-soluble protein abundance (concentration: 4mM),NP40-soluble protein abundance (concentration: 6mM),NP40-soluble protein abundance (concentration: 8mM),NP40-soluble protein abundance (concentration: 10mM)
UniProt Q02241 and related entries,1.17 ± 0.049,1.19 ± 0.025,1.22 ± 0.016,1.21 ± 0.017,1.23 ± 0.023,1.23 ± 0.032
UniProt Q12904,0.989 ± 0.071,0.947 ± 0.067,0.895 ± 0.054,0.987 ± 0.21,0.944 ± 0.094,0.916 ± 0.074
PLP2 (UniProt Q04941),0.935 ± 0.1,0.923 ± 0.083,0.967 ± 0.13,0.95 ± 0.062,0.913 ± 0.072,0.873 ± 0.01
UniProt Q12931 and related entries,0.997 ± 0.11,0.994 ± 0.11,0.972 ± 0.075,0.906 ± 0.16,1.01 ± 0.052,0.983 ± 0.063
UniProt Q07002 and related entries,1.3 ± 0.058,1.28 ± 0.04,1.234 ± 0.0058,1.28 ± 0.03,1.26 ± 0.043,1.275 ± 0.0099
UniProt Q13884 and related entries,0.976 ± 0.12,1.01 ± 0.044,1.06 ± 0.11,0.948 ± 0.15,1.02 ± 0.029,0.985 ± 0.056
SPAG1 (UniProt Q07617),0.936 ± 0.091,0.968 ± 0.04,0.998 ± 0.028,0.946 ± 0.068,0.91 ± 0.054,0.922 ± 0.039
UniProt Q13303 and related entries,0.915 ± 0.12,0.932 ± 0.056,0.905 ± 0.022,0.826 ± 0.13,0.908 ± 0.033,0.945 ± 0.041
UniProt Q09666 and related entries,0.972 ± 0.055,0.96 ± 0.026,0.954 ± 0.037,0.998 ± 0.051,0.925 ± 0.016,0.94 ± 0.014
UniProt Q13362-2|Q13362-3|Q13362-4|Q13362 and related entries,0.951 ± 0.034,0.955 ± 0.04,0.9473 ± 0.0068,0.977 ± 0.01,0.947 ± 0.039,0.951 ± 0.049
UniProt Q13164,0.978 ± 0.058,1.03 ± 0.052,1.02 ± 0.029,0.972 ± 0.044,0.991 ± 0.068,1.01 ± 0.029
TRIM32 (UniProt Q13049),0.984 ± 0.034,0.98 ± 0.028,0.988 ± 0.032,0.969 ± 0.053,1.03 ± 0.027,1.06 ± 0.021
EIF4EBP2 (UniProt Q13542),1.05 ± 0.21,1.03 ± 0.21,0.994 ± 0.11,1.04 ± 0.15,1.01 ± 0.16,0.979 ± 0.073
UniProt Q13838 and related entries,0.927 ± 0.076,0.913 ± 0.078,0.943 ± 0.051,0.932 ± 0.12,1.04 ± 0.074,1.04 ± 0.072
UniProt Q06330 and related entries,0.97 ± 0.055,1.04 ± 0.039,1.04 ± 0.011,0.942 ± 0.056,0.99 ± 0.018,1.06 ± 0.018
VAC14 (UniProt Q08AM6),1.03 ± 0.024,0.973 ± 0.024,0.978 ± 0.027,0.967 ± 0.042,0.99 ± 0.02,0.978 ± 0.016
ERCC8 (UniProt Q13216),0.974 ± 0.1,0.95 ± 0.076,1.01 ± 0.067,0.948 ± 0.067,0.906 ± 0.056,0.968 ± 0.058
UniProt Q13094 and related entries,0.956 ± 0.053,0.96 ± 0.024,0.935 ± 0.038,0.962 ± 0.043,0.929 ± 0.034,0.941 ± 0.028
IFIT5 (UniProt Q13325),1.02 ± 0.086,0.982 ± 0.076,0.984 ± 0.05,0.959 ± 0.11,0.969 ± 0.063,0.943 ± 0.031
UniProt Q12912 and related entries,1.05 ± 0.086,1.07 ± 0.058,1.05 ± 0.078,1.07 ± 0.11,1.02 ± 0.066,1.05 ± 0.043

# Copied from the list:
# Value of UniProt Q13884 and related entries under NP40-soluble protein abundance (concentration: 4mM): 1.06 ± 0.11
# Value of UniProt Q12912 and related entries under NP40-soluble protein abundance (concentration: 2mM): 1.07 ± 0.058
# Value of EIF4EBP2 (UniProt Q13542) under NP40-soluble protein abundance (concentration: 8mM): 1.01 ± 0.16

# (next part)

Target,NP40-soluble protein abundance (concentration: 1mM),NP40-soluble protein abundance (concentration: 2mM),NP40-soluble protein abundance (concentration: 4mM),NP40-soluble protein abundance (concentration: 6mM),NP40-soluble protein abundance (concentration: 8mM),NP40-soluble protein abundance (concentration: 10mM)
IK (UniProt Q13123),1.04 ± 0.052,1.07 ± 0.046,1.11 ± 0.028,1.27 ± 0.078,1.27 ± 0.027,1.37 ± 0.045
UniProt Q13469 and related entries,0.995 ± 0.048,1.01 ± 0.058,1.01 ± 0.053,1.01 ± 0.084,0.981 ± 0.07,1 ± 0.095
NCBP1 (UniProt Q09161),1.09 ± 0.053,1.12 ± 0.07,1.16 ± 0.031,1.18 ± 0.059,1.21 ± 0.065,1.21 ± 0.076
YWHAH (UniProt Q04917),0.808 ± 0.19,0.864 ± 0.019,0.708 ± 0.12,0.892 ± 0.047,0.893 ± 0.041,0.77 ± 0.044
NOTCH2 (UniProt Q04721),1.1 ± 0.25,1.05 ± 0.013,1.02 ± 0.092,1.08 ± 0.022,0.985 ± 0.067,0.963 ± 0.14
CSTF3 (UniProt Q12996),1.08 ± 0.039,1.07 ± 0.02,1.11 ± 0.013,1.11 ± 0.036,1.165 ± 0.008,1.17 ± 0.042
NMI (UniProt Q13287),0.961 ± 0.03,0.984 ± 0.019,0.949 ± 0.018,0.981 ± 0.021,0.952 ± 0.014,0.979 ± 0.043
UniProt Q12789 and related entries,1.08 ± 0.092,1.05 ± 0.049,1.05 ± 0.03,1.02 ± 0.017,1.08 ± 0.013,1.06 ± 0.054
TRIM26 (UniProt Q12899),0.886 ± 0.11,0.839 ± 0.16,0.839 ± 0.11,0.778 ± 0.1,0.717 ± 0.055,0.778 ± 0.048
ACY1 (UniProt Q03154),1.05 ± 0.1,1.01 ± 0.095,0.999 ± 0.082,0.985 ± 0.083,1.01 ± 0.079,0.983 ± 0.081
UniProt Q04724 and related entries,0.901 ± 0.021,1.04 ± 0.14,1.04 ± 0.15,0.953 ± 0.049,0.946 ± 0.12,0.982 ± 0.05
PPAT (UniProt Q06203),0.983 ± 0.084,0.975 ± 0.071,0.951 ± 0.058,0.892 ± 0.068,0.962 ± 0.035,0.967 ± 0.06
GRAP (UniProt Q13588),1.14 ± 0.21,1.06 ± 0.086,1.13 ± 0.16,1.08 ± 0.18,1.1 ± 0.092,1.13 ± 0.11
PDCL (UniProt Q13371),0.983 ± 0.03,0.961 ± 0.028,0.959 ± 0.026,0.992 ± 0.07,1 ± 0.067,0.994 ± 0.074
PLCB3 (UniProt Q01970),1 ± 0.031,1.01 ± 0.036,1 ± 0.036,0.988 ± 0.06,0.984 ± 0.044,1.03 ± 0.07
UniProt Q12824,1.1 ± 0.023,1.07 ± 0.022,1.08 ± 0.024,1.1 ± 0.075,1.13 ± 0.013,1.12 ± 0.019
ITK (UniProt Q08881),1.06 ± 0.15,0.993 ± 0.076,0.971 ± 0.074,0.897 ± 0.065,0.991 ± 0.011,0.972 ± 0.051
MCL1 (UniProt Q07820),0.916 ± 0.11,0.985 ± 0.12,1.01 ± 0.082,0.907 ± 0.15,0.951 ± 0.12,0.934 ± 0.089
UniProt Q14004 and related entries,1.23 ± 0.048,1.25 ± 0.044,1.23 ± 0.047,1.27 ± 0.029,1.25 ± 0.062,1.26 ± 0.034
FOXK2 (UniProt Q01167),1.01 ± 0.039,1.01 ± 0.044,0.994 ± 0.042,1.03 ± 0.044,0.97 ± 0.054,1.01 ± 0.03

Target,NP40-soluble protein abundance (concentration: 1mM),NP40-soluble protein abundance (concentration: 2mM),NP40-soluble protein abundance (concentration: 4mM),NP40-soluble protein abundance (concentration: 6mM),NP40-soluble protein abundance (concentration: 8mM),NP40-soluble protein abundance (concentration: 10mM)
SLC7A5 (UniProt Q01650),0.957 ± 0.045,0.945 ± 0.025,0.92 ± 0.035,0.992 ± 0.042,0.899 ± 0.026,0.925 ± 0.062
DPYD (UniProt Q12882),0.997 ± 0.031,1.03 ± 0.04,0.995 ± 0.027,0.971 ± 0.035,0.987 ± 0.025,0.984 ± 0.019
UniProt Q01105-2,0.866 ± 0.11,0.911 ± 0.037,0.859 ± 0.17,0.813 ± 0.3,0.873 ± 0.047,0.734 ± 0.096
HNRNPA0 (UniProt Q13151),1.05 ± 0.077,1 ± 0.038,0.977 ± 0.051,1.09 ± 0.035,1.01 ± 0.025,1.03 ± 0.027
SNTB2 (UniProt Q13425),1 ± 0.031,1.05 ± 0.039,1.02 ± 0.043,1 ± 0.042,1.06 ± 0.072,1.03 ± 0.066
RAB33A (UniProt Q14088),1.1 ± 0.11,1.06 ± 0.13,1.04 ± 0.086,1.1 ± 0.2,1.04 ± 0.19,1.08 ± 0.092
ADAM9 (UniProt Q13443),0.888 ± 0.14,0.957 ± 0.13,0.87 ± 0.046,0.992 ± 0.1,0.902 ± 0.049,0.908 ± 0.023
FHL3 (UniProt Q13643),1.05 ± 0.097,1.04 ± 0.096,1.11 ± 0.23,1.12 ± 0.17,1.11 ± 0.21,1.05 ± 0.18
RBL2 (UniProt Q08999),1.03 ± 0.092,1.02 ± 0.015,0.999 ± 0.016,1.01 ± 0.034,0.987 ± 0.013,1.03 ± 0.013
UniProt Q13416,0.944 ± 0.042,0.965 ± 0.044,0.983 ± 0.048,1.01 ± 0.052,0.968 ± 0.049,0.981 ± 0.024
UniProt Q13242,1.14 ± 0.1,1.24 ± 0.1,1.4 ± 0.16,1.61 ± 0.18,1.54 ± 0.3,1.48 ± 0.59
UniProt Q09028-2|Q09028-3|Q09028,1.06 ± 0.084,0.997 ± 0.027,0.973 ± 0.027,1.02 ± 0.025,1 ± 0.023,0.986 ± 0.03
KHDRBS1 (UniProt Q07666),0.928 ± 0.12,1.13 ± 0.18,0.962 ± 0.16,1.22 ± 0.12,1.09 ± 0.072,1.02 ± 0.18
RING1 (UniProt Q06587),1.02 ± 0.052,0.999 ± 0.021,1.03 ± 0.031,1.04 ± 0.021,1.01 ± 0.052,1.04 ± 0.028
UniProt Q05086 and related entries,0.972 ± 0.027,0.958 ± 0.032,0.928 ± 0.025,0.945 ± 0.043,0.9466 ± 0.0092,0.935 ± 0.032
TARDBP (UniProt Q13148),0.994 ± 0.046,0.958 ± 0.02,0.934 ± 0.026,0.9801 ± 0.0073,0.932 ± 0.029,0.956 ± 0.049
SCRN1 (UniProt Q12765),1.01 ± 0.069,1 ± 0.07,0.977 ± 0.072,1 ± 0.089,0.995 ± 0.08,0.979 ± 0.07
REST (UniProt Q13127),1.06 ± 0.16,1.07 ± 0.088,1.07 ± 0.08,1.07 ± 0.092,1.05 ± 0.1,1.077 ± 0.008
UniProt Q08623 and related entries,1.03 ± 0.046,1 ± 0.032,1.04 ± 0.011,0.959 ± 0.068,0.997 ± 0.017,0.973 ± 0.037
MGAT2 (UniProt Q10469),1.11 ± 0.11,1.03 ± 0.011,1.06 ± 0.024,1.01 ± 0.012,1.01 ± 0.035,1.02 ± 0.035
